PMC9799981

B1: p54^nrb (endogenous mouse Nono) (protein, UniProt Q99K48 1-473)
chain: MQSNKAFNLEKQNHTPRKHHQHHHQQHHQQQQQQQQQQPPPPIPANGQQASSQNEGLTIDLKNFRKPGEKTFTQRSRLFVGNLPPDITEEEMRKLFEKYGKAGEVFIHKDKGFGFIRLETRTLAEIAKVELDNMPLRGKQLRVRFACHSASLTVRNLPQYVSNELLEEAFSVFGQVERAVVIVDDRGRPSGKGIVEFSGKPAARKALDRCSEGSFLLTTFPRPVTVEPMDQLDDEEGLPEKLVIKNQQFHKEREQPPRFAQPGSFEYEYAMRWKALIEMEKQQQDQVDRNIKEAREKLEMEMEAARHEHQVMLMRQDLMRRQEELRRMEELHNQEVQKRKQLELRQEEERRRREEEMRRQQEEMMRRQQEGFKGTFPDAREQEIRMGQMAMGGAMGINNRGAMPPAPVPPGTPAPPGPATMMPDGTLGLTPPTTERFGQAATMEGIGAIGGTPPAFNRPAPGAEFAPNKRRRY
B2: hnRNPF (protein, UniProt Q9Z2X1 1-415)
chain: MMLGPEGGEGYVVKLRGLPWSCSIEDVQNFLSDCTIHDGVAGVHFIYTREGRQSGEAFVELESEDDVKLALKKDRESMGHRYIEVFKSHRTEMDWVLKHSGPNSADSANDGFVRLRGLPFGCTKEEIVQFFSGLEIVPNGITLPVDPEGKITGEAFVQFASQELAEKALGKHKERIGHRYIEVFKSSQEEVRSYSDPPLKFMSVQRPGPYDRPGTARRYIGIVKQAGLDRMRSGAYSAGYGGYEEYSGLSDGYGFTTDLFGRDLSYCLSGMYDHRYGDSEFTVQSTTGHCVHMRGLPYKATENDIYNFFSPLNPVRVHIEIGPDGRVTGEADVEFATHEEAVAAMSKDRANMQHRYIELFLNSTTGASNGAYSSQVMQGMGVSAAQATYSGLESQSVSGCYGAGYSGQNSMGGYD
B3: hnRNPH1 (protein, UniProt O35737 1-449)
chain: MMLGAEGGEGFVVKVRGLPWSCSADEVQRFFSDCKIQNGAQGIRFIYTREGRPSGEAFVELESEDEVKLALKKDRETMGHRYVEVFKSNNVEMDWVLKHTGPNSPDTANDGFVRLRGLPFGCSKEEIVQFFSGLEIVPNGITLPVDFQGRSTGEAFVQFASQEIAEKALKKHKERIGHRYIEIFKSSRAEVRTHYDPPRKLMAMQRPGPYDRPGAGRGYNSIGRGAGFERMRRGAYGGGYGGYDDYNGYNDGYGFGSDRFGRDLNYCFSGMSDHRYGDGGSTFQSTTGHCVHMRGLPYRATENDIYNFFSPLNPVRVHIEIGPDGRVTGEADVEFATHEDAVAAMSKDKANMQHRYVELFLNSTAGASGGAYEHRYVELFLNSTAGASGGAYGSQMMGGMGLSNQSSYGGPASQQLSGGYGGGYGGQSSMSGYDQVLQENSSDFQSNIA
B4: RBM3 (protein, UniProt O89086 1-153)
chain: MSSEEGKLFVGGLNFNTDEQALEDHFSSFGPISEVVVVKDRETQRSRGFGFITFTNPEHASDAMRAMNGESLDGRQIRVDHAGKSARGSRGGAFGGRGRSYSRGGGDQGYGSGRYDSRPGGYGYGYGRSRDYSGSQGGYDRYSGGNYRDNYDN
B5: paraspeckle protein C1 (PSPC1) (protein, UniProt Q8R326 1-523)
chain: MMLRGNLKQVRIEKNPARLRALESAAGESEPVAAAAMALTLAGEQAPPPAPSEEHPDEELGFTIDIKSFLKPGEKTYTQRCRLFVGNLPTDITEEDFKRLFERYGEPSEVFINRDRGFGFIRLESRTLAEIAKAELDGTILKSRPLRIRFATHGAALTVKNLSPVVSNELLEQAFSQFGPVEKAVVVVDDRGRATGKGFVEFAAKPPARKALERCGDGAFLLTTTPRPVIVEPMEQFDDEDGLPEKLMQKTQQYHKEREQPPRFAQPGTFEFEYASRWKALDEMEKQQREQVDRNIREAKEKLEAEMEAARHEHQLMLMRQDLMRRQEELRRLEELRNQELQKRKQIQLRHEEEHRRREEEMIRHREQEELRRQQEGGFKPNYMENREQEMRMGDMGPRGAINMGDAFSPAPAGTQGPPPMMGMNMNNRGTIPGPPMGPGPAMGPEGAANMGTPMIPDNGAVHNDRFPQGPPSQMGSPMGNRTGSETPQAPMSGVGPVSGGPGGFGRGSQGGNFEGPNKRRRY
B6: UBAP2L (protein, UniProt Q80X50 1-1107)
chain: MMTSVGTNRARGNWEQPQNQNQTQHKQRPQATAEQIRLAQMISDHNDADFEEKVKQLIDITGKNQDECVIALHDCNGDVNRAINVLLEGNPDTHSWEMVGKKKGVSGQKDGGQTESNEEGKENRDRDRDYSRRRGGPPRRGRGASRGREFRGQENGLDGTKSGGPSGRGTDRGRRGRGRGRGSSGRRGGRFSAQGMGTFNPADYAEPANTDDNYGNSSGNTWNNTGHFEPDDGTRLDFIGVEGSNYPRKFETAPGAWRTATEEWGTEDWNEDLSETKIFTASNVSSVPLPAENVTITAGQRIDLAVLLGKTPSSMENDSSNLDPSQAPSLAQPLVFSNSKQNAISQPASGSTFSHHSMVSMLGKGFGDVGEAKGGSTTGSQFLEQFKTAQALAQLAAQHSQSGSTTTSSWDMGSTTQSPSLVQYDLKSANDSTVHSPFTKRQAFTPSSTMMEVFLQEKPPAVATSTAAPPPPSSPLPSKSTSAPQMSPGSSDNQSSSPQPAQQKLKQQKKKTSLTSKIPALAVEMPGSADISGLNLQFGALQFGSEPVLSDYESTPTTSASSSQAPSSLYTSTASESSSTVSSNQSQESGYQSGPIQSTTYTSQNNAQGPLYEQRSTQTRRYPSSISSSPQKDLTQAKNGFSSVQATQLQTTQSVEGATGSAVKSESPSTSSIPSLNETVPAASLLTTANQHSSSLSGLSHTEEIPNTTTTQHSSALSTQQNTLSSSTSSGRTSTSTLLHTSVESEANLHSSSSTFSTTSSTVSAPPPVVSVSSSLNSGSSLGLSLGSNSTVTASTRSSVATTSGKAPPNLPPGVPPLLPNPYIMAPGLLHAYPPQVYGYDDLQMLQTRFPLDYYSIPFPTPTTPLTGRDGSLASNPYSGDLTKFGRGDASSPAPATTLAQPQQNQTQTHHTTQQTFLNPALPPGYSYTSLPYYTGVPGLPSTFQYGPAVFPVAPTSSKQHGVNVSVNASATPFQQPSGYGSHGYNTGVSVTSSNTGVPDISGSVYSKTQQSFEKQGFHSGTPAASFNLPSALGSGGPINPATAAAYPPAPFMHILTPHQQPHSQILHHHLQQDGQTGSGQRSQTSSIPQKPQTNKSAYNSYSWGAN
B7: ZNF335 (protein, UniProt A2A5K6 1-1337)
chain: MEENEVESSSDAAPRPGQPEEPSESGLGVCTSEAVSADSSDAATVPGLTEADDSGVGQSSDGGNHSVEEVSESISTDPLPHGCLPDSSSVSRGPVAEMPGGPPALVHSSVLPDPSMLVSDCTASSSDLGSAIDKIIESTIGPDLIQSCITVTSGEEGGAETTQYLILQGPDDGAPMASSMSTSTLANSLAAIEALADGPTSTSACLEPPEEPQGDPSSVAQQPPAPVTEELDLQSLEAMMEVVVVQQFKCKMCQYRSSTKATLLRHMRERHFRPALAAAAAATGKRGRVRKWGTSTKTTEEDRPEEEEEDDDIVDAGAIDDLEEDSDYNPAEDEPRGRQLRLQRPTPSTPRPRRRPGRPRKLPRLETSDLHDGVGQPLVSSQSTQSPPELQDLEAPSSSGLRALGKVGRGLVESGVSQSDAENAAPSCQDEADAPPRRRGRPSRRFLGKKYRKYYYKSPKPLLRPYLCRICGSRFLSHEDLRFHVNSHEAGDPQLFRCLQCSYRSRRWSSLKEHMFNHVGSKPYKCDECSYTSVYRKDVIRHAAVHSQDRKKRPDPTPKLSSFPCPVCGRVYPMQKRLTQHMKTHSTEKPHMCDKCGKSFKKRYTFKMHLLTHIQAVANRRFKCEFCEFVCEDKKALLNHQLSHVSDKPFKCSFCPYRTFREDFLLSHVAVKHTGAKPFACEYCHFSTRHKKNLRLHVRCRHANSFEEWGRRHPEEPPSRRRPFFSLQQIEELKQQHSTAPGPPLSSPGPEAPQEPAPFQSPETPPLLCPDALGGTTIIYQQGAEESTAVATQTALDLLLNMSAQRELGATALQVAVVKSEGIEAELTSTGGQPSPEDTTPRVVTLHMAESGSSVAAESQLGPSDLQQIALPSGPFGGASYSVITAPPVEGRTSASGPPYREEPPGEAAQAVVVSDTLKEAGTHYIMAADGTQLHHIELTADGSISFPSPDTLAPGTKWPLLQCGGPPRDGSEVLSPTKTHHMGGSQGSSTPPPAASHTLGLVVPQSPPSAAASSTKKFSCKVCSEAFPSRAEMESHKRAHAGPAAFKCPDCPFSARQWPEVRAHMAQHSSLRPHQCNQCSFASKNKKDLRRHMLTHTNEKPFSCHVCGQRFNRNGHLKFHIQRLHSIDGRKTGTSTARAPAQTIILNSEEETLATLHTAFQSSHGVLGTERLQQALSQEHIIVAQEQTVTNQEEATYIQEITADGQTVQHLVTSDNQVQYIISQDGVQHLLPQEYVVVPDGHHIQVQEGQITHIQYEQGTPFLQESQIQYVPVSPSQQLVTQAQLEAAAHSAVTAVADAAMAQAQGLFGTEEAVPEQIHQLQHQGIEYDVITLSDD
B8: CIRBP (protein, UniProt P60824 1-172)
chain: MASDEGKLFVGGLSFDTNEQALEQVFSKYGQISEVVVVKDRETQRSRGFGFVTFENIDDAKDAMMAMNGKSVDGRQIRVDQAGKSSDNRSRGYRGGSAGGRGFFRGGRSRGRGFSRGGGDRGYGGGRFESRSGGYGGSRDYYASRSQGGSYGYRSSGGSYRDSYDSYATHNE
B9: CPSF6 (protein, UniProt Q6NVF9 1-551)
chain: MADGVDHIDIYADVGEEFNQEAEYGGHDQIDLYDDVISPSANNGDAPEDRDYMDTLPPTVGDDVGKGAAPNVVYTYTGKRIALYIGNLTWWTTDEDLTEAVHSLGVNDILEIKFFENRANGQSKGFALVGVGSEASSKKLMDLLPKRELHGQSPVVTPCNKQFLSQFEMQSRKTTQSGQMSGEGKAGPPGGGSRAAFPQGGRGRGRFPGAVPGGDRFPGPAGPGGPPPPFPAGQTPPRPPLGPPGPPGPPGPPPPGQVLPPPLAGPPNRGDRPPPPVLFPGQPFGQPPLGPLPPGPPPPVPGYGPPPGPPPPQQGPPPPPGPFPPRPPGPLGPPLTLAPPPHLPGPPPGAPPPAPHVNPAFFPPPTNSGMPTSDSRGPPPTDPYGRPPPYDRGDYGPPGREMDTARTPLSEAEFEEIMNRNRAISSSAISRAVSDASAGDYGSAIETLVTAISLIKQSKVSADDRCKVLISSLQDCLHGIESKSYGSGSRRERSRERDHSRSREKSRRHKSRSRDRHDDYYRERSRERERHRDRDRDRDRERDREREYRHR
B10: CPSF7 (protein, UniProt Q8BTV2 1-471)
chain: MSEGVDLIDIYADEEFNQDSEFNNTDQIDLYDDVLTAASQPSDDRSSSTEPPPPVRQEPAPKPNNKTPAILYTYSGLRSRRAAVYVGSFSWWTTDQQLIQVIRSIGVYDVVELKFAENRANGQSKGYAEVVVASENSVHKLLELLPGKVLNGEKVDVRPATRQNLSQFEAQARKRECVRVPRGGIPPRAHSRDSSDSADGRATPSENLVPSSARVDKPPSVLPYFNRPPSALPLMGLPPPPIPPPPPLSSSFGVPPPPPGIHYQHLMPPPPRLPPHLAVPPPGAIPPALHLNPAFFPPPNATVGPPPDTYMKASTPYNHHGSRDSGPPPSTVSEAEFEEIMKRNRAISSSAISKAVSGASAGDYSDAIETLLTAIAVIKQSRVANDERCRVLISSLKDCLHGIEAKSYSVGASGSSSRKRHRSRERSPSRSRESSRRHRDLLHNEDRHDDYFQERNREHERHRDRERDRHH

Target: HA-tagged p54^nrb
Test: affinity purification with mass spectrometry; anti-HA immunoprecipitation from the nuclear fraction (RIPA) of HL-1 cells transduced with HA-p54^nrb, in normoxia or hypoxia (1% O2, 4 hr); 150 μg protein, protein G beads overnight at 4 °C, elution with HA peptides; label-free quantitative …

binding, binds:
B1
B2
B3
B4
B5
B6
B7
B8
B9
B10

These are yes or no findings as the source states them, for the method shown. Binding seen in cells or lysates may run through a third protein. These calls come from enrichment with a bait or labelling near it, and not all partners need be listed.
